Some of the results follow.
Assays:
Assay in all cases: log2 fold change, soluble protein after heating vs DMSO (PISA); higher = thermal stabilisation; K562 cells, 10 uM, 30 min; active = over 0.2 and 3.5 SD of the protein, either way, in both replicates (recomputed)
[1] = compound: C/C(=N\NC(=O)C1=CC(=CC=C1)S(=O)(=O)N2CCOCC2)/C3=C(C=CC(=C3)Cl)O
Outline: (§1)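 Thermal stability values are relative to control samples and come from duplicates. They are expressed as log2 fold changes. For measurement, K562 cells (2×10^6 cells/mL) received 10 μM compound for 30 min, and aliquots were heated for 3 min over 48°C-58°C, pooled, and extracted at 4°C in PBS with 0.5% NP-40. Soluble protein, the supernatant after 21,000xg for 90 min, was quantified by TMTpro 16plex LC-MS/MS with equalised channel sums.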

Sequences of proteins named here, by UniProt entry; tags and fusion partners are left off. A change or cut given only in a name is not applied to a line headed by its entry.
UniProt Q96K19: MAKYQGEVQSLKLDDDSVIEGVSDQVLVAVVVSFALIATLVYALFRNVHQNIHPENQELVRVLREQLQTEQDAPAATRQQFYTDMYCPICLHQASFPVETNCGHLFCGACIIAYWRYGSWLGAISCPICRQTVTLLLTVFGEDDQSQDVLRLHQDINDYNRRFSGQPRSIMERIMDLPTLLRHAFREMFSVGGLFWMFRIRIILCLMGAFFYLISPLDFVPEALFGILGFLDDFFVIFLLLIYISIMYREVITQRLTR
UniProt Q9P2R6: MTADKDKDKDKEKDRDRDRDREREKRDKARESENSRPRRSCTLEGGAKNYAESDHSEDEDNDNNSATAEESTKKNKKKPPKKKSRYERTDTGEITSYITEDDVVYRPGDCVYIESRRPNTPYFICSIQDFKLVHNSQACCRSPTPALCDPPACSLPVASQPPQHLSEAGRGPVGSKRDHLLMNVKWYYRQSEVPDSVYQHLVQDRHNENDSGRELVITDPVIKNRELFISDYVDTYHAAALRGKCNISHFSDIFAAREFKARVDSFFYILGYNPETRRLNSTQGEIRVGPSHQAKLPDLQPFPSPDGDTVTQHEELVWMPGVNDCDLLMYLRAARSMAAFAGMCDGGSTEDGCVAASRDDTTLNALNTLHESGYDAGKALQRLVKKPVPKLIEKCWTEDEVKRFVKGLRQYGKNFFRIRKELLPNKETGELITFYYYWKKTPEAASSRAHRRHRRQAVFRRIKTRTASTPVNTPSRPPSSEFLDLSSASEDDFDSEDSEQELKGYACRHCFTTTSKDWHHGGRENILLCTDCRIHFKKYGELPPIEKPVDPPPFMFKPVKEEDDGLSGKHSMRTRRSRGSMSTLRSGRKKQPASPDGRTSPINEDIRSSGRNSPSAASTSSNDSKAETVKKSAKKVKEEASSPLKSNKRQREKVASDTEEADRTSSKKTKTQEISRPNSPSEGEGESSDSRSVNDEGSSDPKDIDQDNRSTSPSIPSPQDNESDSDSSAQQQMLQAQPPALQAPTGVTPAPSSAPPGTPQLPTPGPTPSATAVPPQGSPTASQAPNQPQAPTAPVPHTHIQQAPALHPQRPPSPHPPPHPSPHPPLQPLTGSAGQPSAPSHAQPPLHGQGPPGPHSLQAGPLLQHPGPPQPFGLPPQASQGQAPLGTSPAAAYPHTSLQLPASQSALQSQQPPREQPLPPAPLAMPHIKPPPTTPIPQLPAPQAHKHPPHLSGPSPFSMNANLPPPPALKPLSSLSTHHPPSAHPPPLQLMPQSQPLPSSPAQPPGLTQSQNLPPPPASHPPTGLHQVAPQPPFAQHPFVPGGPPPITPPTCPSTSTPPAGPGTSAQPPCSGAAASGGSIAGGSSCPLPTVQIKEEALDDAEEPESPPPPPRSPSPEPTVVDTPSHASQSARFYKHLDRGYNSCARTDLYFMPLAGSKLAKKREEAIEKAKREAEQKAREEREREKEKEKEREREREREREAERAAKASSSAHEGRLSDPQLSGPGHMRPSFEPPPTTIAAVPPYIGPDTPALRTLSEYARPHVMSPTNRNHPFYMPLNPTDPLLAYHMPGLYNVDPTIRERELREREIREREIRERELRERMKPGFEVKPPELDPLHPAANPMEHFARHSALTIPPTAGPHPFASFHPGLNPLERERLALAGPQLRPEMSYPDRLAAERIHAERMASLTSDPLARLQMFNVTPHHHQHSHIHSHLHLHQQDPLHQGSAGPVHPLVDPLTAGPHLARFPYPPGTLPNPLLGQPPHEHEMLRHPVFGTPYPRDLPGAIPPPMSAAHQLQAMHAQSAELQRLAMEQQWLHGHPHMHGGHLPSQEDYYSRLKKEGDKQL
UniProt Q6ZNA4: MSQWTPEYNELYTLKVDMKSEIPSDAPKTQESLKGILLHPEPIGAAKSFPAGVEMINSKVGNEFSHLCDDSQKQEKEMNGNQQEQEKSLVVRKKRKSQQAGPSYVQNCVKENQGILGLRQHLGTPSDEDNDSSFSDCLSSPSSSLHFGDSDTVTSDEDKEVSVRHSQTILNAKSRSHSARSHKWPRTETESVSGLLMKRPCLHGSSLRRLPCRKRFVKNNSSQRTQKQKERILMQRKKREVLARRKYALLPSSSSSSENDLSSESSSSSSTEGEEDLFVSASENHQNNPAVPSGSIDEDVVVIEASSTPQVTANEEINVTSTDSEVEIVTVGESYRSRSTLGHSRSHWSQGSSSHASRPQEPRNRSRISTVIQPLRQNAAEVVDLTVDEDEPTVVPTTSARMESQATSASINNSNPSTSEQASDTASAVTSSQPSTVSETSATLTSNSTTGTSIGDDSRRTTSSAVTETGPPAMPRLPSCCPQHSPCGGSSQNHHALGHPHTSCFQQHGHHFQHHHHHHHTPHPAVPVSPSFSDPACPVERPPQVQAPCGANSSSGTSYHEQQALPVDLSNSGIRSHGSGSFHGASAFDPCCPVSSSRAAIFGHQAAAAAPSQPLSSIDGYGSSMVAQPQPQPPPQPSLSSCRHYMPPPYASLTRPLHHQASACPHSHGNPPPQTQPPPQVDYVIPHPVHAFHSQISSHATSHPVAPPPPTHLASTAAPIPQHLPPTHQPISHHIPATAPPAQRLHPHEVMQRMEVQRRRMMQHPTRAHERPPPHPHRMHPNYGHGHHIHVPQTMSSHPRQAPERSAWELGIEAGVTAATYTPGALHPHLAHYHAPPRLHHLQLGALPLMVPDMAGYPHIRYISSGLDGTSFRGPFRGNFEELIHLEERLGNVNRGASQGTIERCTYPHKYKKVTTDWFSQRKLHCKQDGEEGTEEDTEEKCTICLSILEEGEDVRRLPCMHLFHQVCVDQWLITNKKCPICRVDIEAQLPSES

[2] = compound: C1=CC(=C(C=C1Cl)C2=NC3=NC=CN=C3C(=N2)NC4=CC=NC=C4)F
Outline: as §1

[3] = compound: C1=CC2=C(C=CC(=C2)/C=C\3/C(=O)NC(=NCC4=CC=CS4)S3)N=C1
Outline: as §1

[4] = compound: C1=CC2=NC=CN=C2C=C1/C=C/3\C(=O)NC(=O)S3
Outline: as §1

[5] = compound: C1=CC=C(C=C1)C2=NC(=C(N2)C3=CC=NC=C3)C4=CC(=C(C=C4)Cl)O
Outline: as §1

[6] = compound: C1=CC=C2C(=C1)C3=NNC4=CC=CC(=C43)C2=O
Outline: as §1

erlotinib = compound: C#Cc1cccc(Nc2ncnc3cc(OCCOC)c(OCCOC)cc23)c1 [erlotinib]
Outline: as §1

[7] = compound: C1=CC(=CC=C1C2=NC3=C(N2)C=C(C=C3)C(=O)N)OC4=CC=C(C=C4)Cl
Outline: as §1

Measured: log2 fold change

RNF170 (UniProt Q96K19)
inactive: [1] -0.044 | [2] 0.1 | [3] 0.103 | [4] -0.002 | [5] 0.082 | [6] -0.053

RERE (UniProt Q9P2R6)
inactive: erlotinib -0.026 | [2] 0.002 | [7] -0.01 | [4] -0.016 | [5] -0.164

RNF111 isoform 3 (UniProt Q6ZNA4)
inactive: erlotinib 0.057 | [7] -0.011
